Assay [1] has as its target c-Cbl (endogenous, mouse primary thymocytes) (mouse) (UniProt P22682). The experiment in a line: co-immunoprecipitation with anti-MARS-C from mouse primary thymocytes, anti-c-Cbl immunoblot. In general terms: A western blot detects proteins with antibodies after separation by electrophoresis.
The target of assay [2] is ZAP-70 (endogenous, Jurkat T-cell lysate) (human) (UniProt P43403). The experiment in a line: summary statement; the matching experiment is the GST pull-down from Jurkat lysates of FIG. 13 (anti-phosphotyrosine blot).
Assay [3] addresses c-Cbl (endogenous, Jurkat T-cell lysate) (human) (UniProt P22681). The experiment in a line: summary statement; the matching experiment is the GST pull-down from Jurkat lysates of FIG. 13.
The target in assay [4] is ZAP-70 (endogenous, Jurkat T-cell lysate) (human) (UniProt P43403). The experiment in a line: GST pull-down from Jurkat lysates, immunoblot (legend of FIG. 5).
For assay [5] the target is unchanged. Nature of the assay: GST pull-down from Jurkat lysates, immunoblot.
Assay [6] has the same target. Nature of the assay: GST pull-down from anti-CD3 stimulated Jurkat lysates, immunoblot.

Protein sequences, listed by entry. Tags and fused reporters are not part of them.
UniProt P43403: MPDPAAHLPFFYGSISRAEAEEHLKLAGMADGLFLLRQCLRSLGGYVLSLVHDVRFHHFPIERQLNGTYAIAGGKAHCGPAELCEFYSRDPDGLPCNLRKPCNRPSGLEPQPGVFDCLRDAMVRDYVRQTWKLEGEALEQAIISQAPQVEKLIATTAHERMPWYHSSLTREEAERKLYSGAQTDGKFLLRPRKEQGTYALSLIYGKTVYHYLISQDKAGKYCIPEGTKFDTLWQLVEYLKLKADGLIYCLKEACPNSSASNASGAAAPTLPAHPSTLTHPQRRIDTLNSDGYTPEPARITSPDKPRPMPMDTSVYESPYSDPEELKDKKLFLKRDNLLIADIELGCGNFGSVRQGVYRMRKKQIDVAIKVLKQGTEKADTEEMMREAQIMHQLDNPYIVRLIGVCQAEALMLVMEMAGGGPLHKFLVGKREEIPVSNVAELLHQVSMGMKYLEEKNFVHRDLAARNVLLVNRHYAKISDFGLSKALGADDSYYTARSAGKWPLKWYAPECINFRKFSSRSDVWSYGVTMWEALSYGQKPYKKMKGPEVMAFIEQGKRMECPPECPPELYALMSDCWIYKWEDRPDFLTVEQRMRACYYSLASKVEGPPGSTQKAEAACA

This is an account of results in patent US20040171537A1.

Results are given in words; binding and its absence hold for the method and conditions named. In cells and extracts the contact can be indirect. Some entries that bind do so weakly or less than the wild type. For part of these data: Sequences can lack the tags named with a protein.

B1: murine MARS protein (endogenous) (protein)
chain: GSLSSRGKTSSPSPSSSGPDQEPVSMQPERHKVTAVALGSFPAGEQARLSLRLGEPLTIISEDGDWWTVQSEVSGREYHMPSVYVAKVAHGWLYEGLSREKAEELLLLPGNPGGAFLIRESQTRRGCYSLSVRLSRPASWDRIRHYRIQRLDNGWLYISPRLTFPSLHALVEHYSELADGICCPLREPCVLQKLGPLPGKDTPPPVTVPTSSLNWKKLDRSLLFLEAPASGEASLLSEGLRESLSSYISLAEDPLDDA
modifications: p28 isoform carries an N-terminal myristoylation sequence
As for B1, the binding entry in assay [1] is “binds”.

B2: GST fusion of full-length human MARS (protein, not shown: a dimerising Fc or GST)
chain: MGSLPSRRKSLPSPSLSSSVQGQGPVTMEAERSKATAVALGSFPAGGPAELSLRLGEPLTIVSEDGDWWTVLSEVSGREYNIPSVHVAKVSHGWLYEGLSREKAEELLLLPGNPGGAFLIRESQTRRGSYSLSVRLSRPASWDRIRHYRIHCLDNGWLYISPRLTFPSLQALVDHYSELADDICCLLKEPCVLQRAGPLPGKDIPLPVTVQRTPLNWKELDSSLLFSEAATGEESLLSEGLRESLSFYISLNDEAVSLDDA
As for B2, the binding result in assay [2] and in assay [3] was “binds” throughout.

B3: GST-MARS (wild type murine MARS GST fusion protein) (protein, not shown: a dimerising Fc or GST)
chain: MGSLSSRGKTSSPSPSSSGPDQEPVSMQPERHKVTAVALGSFPAGEQARLSLRLGEPLTIISEDGDWWTVQSEVSGREYHMPSVYVAKVAHGWLYEGLSREKAEELLLLPGNPGGAFLIRESQTRRGCYSLSVRLSRPASWDRIRHYRIQRLDNGWLYISPRLTFPSLHALVEHYSELADGICCPLREPCVLQKLGPLPGKDTPPPVTVPTSSLNWKKLDRSLLFLEAPASGEASLLSEGLRESLSSYISLAEDPLDDA
B3: the binding result in assay [4], in assay [5] and in assay [6] was “binds” each time.
